Measured values reported in patent publication US5989326A, “Dyes for ink jet printing” (Ilford Imaging Switzerland GmbH, priority 1997, dated 1999).

Key:
[1] = Colour co-ordinates (L*a*b*) of printed samples; conditions: printed on gelatine-coated receiving sheet, HP560 ink jet printer
Method: (§1) The present invention in so far as it relates to inks is further illustrated by using dyes described in Tables 1, 2 and 3. 100 g of each ink were prepared by heating the dye (3-7 g), 5 g of glycerol, 1.1 g of tetraethyleneglycole and 1.2 g of a biocide solution (Promexal X50, available from Zeneca, Manchester, England) together with water to a temperature of approximately 50° C. under stirring for one hour to make a solution, cooling it down to 20° C., adjusting pH to 7.5 and passing the solution through a Millipore® filter of 0.5 μm pore diameter. The dye quantity was adjusted in a way that the printed density was the same for all dyes.
(§2) An ink receiving sheet for the testing procedures was prepared in the following way: 30 g gelatine with a high isoelectric point (type St 70'810, available from Deutsche Gelatinefabriken, Eberbach, Germany) were dissolved in 360 ml of deionised water. To this solution was added 1 g of a surfactant (Olin 10G, available from Olin Corporation, Norwalk, USA). Immediately before coating 6.6 g of a 3% solution of 2-(4-dimethyl-carbamoyl-pyridino)-ethane-sulfonate was added and the pH was adjusted to 6.5. 100 g/m^2 of this solution was then coated onto an RC paper support using a barcoater. The sheets were dried for 12 hours.
(§3) The inks were then jetted onto these receiving sheets with an HP560 ink jet printer to evaluate their printing performance. The evaluation methods for (A) dye solubility, (B) colour co-ordinates, (C) smudge resistance and (D) light fastness are as follows:
L*a*b*-values were measured on printed samples using a Gretag SPM 100 spectrometer, available from Gretag AG, Regensdorf, Switzerland.

[2] = Smudge resistance of printed images; design: key: ⊕: Little or no smear; .diamond.: Slight smear; .O slashed.: Severe smear; conditions: HP560 ink jet printer
Method: as §1, §2, §3
The smudge behaviour was evaluated by determining the degree of smear of the dye in images printed as described above according to the following criteria:
⊕: Little or no smear
.O slashed.: Severe smear

[3] = Light stability: loss of density of printed samples on Xenon irradiation; conditions: total illumination 20 kJoule/cm^2, 6500 W Xenon lamp; % loss of initial density
Method: as §1, §2, §3
The printed samples were irradiated in an Atlas Ci35A Weather-O-Meter® with a 6500 W Xenon lamp until a total illumination of 20 kJoule/cm^2 was reached. The loss of density was measured with an X-Rite® densitometer and is expressed in % loss of initial density.

[4] = Bronzing of printed samples; conditions: no loss of density figure given
Method: as §1, §2
The inks were then jetted onto these receiving sheets with an HP560 ink jet printer to evaluate their printing performance. The evaluation methods for (A) dye solubility, (B) colour co-ordinates, (C) smudge resistance and (D) light fastness are as follows: […]

SMILES	L*-Value [1]	a*-Value [1]	b*-Value [1]	Smudge Value [2]	Loss of Density in % [3]	Bronzing (printed in column Loss of Density in %) [4]
COc1cc(N=Nc2cccc(C(=O)O)c2)c(NC(C)=O)cc1N=Nc1c(S(=O)(=O)O)cc2ccc(Nc3ccc(C(=O)O)cc3)cc2c1O [Compound 12]	13.2	4.6	-3.3	.diamond.	10.3%	
COc1cc(N=Nc2cc(S(=O)(=O)O)c3cccc(S(=O)(=O)O)c3c2)c(C)cc1N=Nc1c(S(=O)(=O)O)cc2ccc(NCCS(=O)(=O)O)cc2c1O [Compound 4]	2.4	3.8	-0.9	⊕	3%	
Cc1cc(N=Nc2c(S(=O)(=O)O)cc3ccc(NCCS(=O)(=O)O)cc3c2O)c(OCCO)cc1N=Nc1cc(S(=O)(=O)O)c2cccc(S(=O)(=O)O)c2c1 [Compound 5]	2.6	2.4	-0.4	⊕	3.3%	
COc1cc(N=Nc2cccc(C(=O)O)c2)c(C)cc1N=Nc1c(S(=O)(=O)O)cc2ccc(N)cc2c1O [Compound 15]	12.9	8.1	4.0	.O slashed.		Bronzing
COc1cc(N=Nc2c(S(=O)(=O)O)cc3ccc(NCCS(=O)(=O)O)cc3c2O)c(OC)cc1N=Nc1cc(S(=O)(=O)O)c2cccc(S(=O)(=O)O)c2c1 [Compound 7]	5.8	4.3	0.7	.diamond.	7%	
Cc1cc(N=Nc2c(S(=O)(=O)O)cc3ccc(Nc4cccc(S(=O)(=O)O)c4)cc3c2O)ccc1N=Nc1cc(S(=O)(=O)O)c2cccc(S(=O)(=O)O)c2c1 [Compound 10]	4.1	13.0	2.9	⊕	8.6%	
COc1cc(N=Nc2c(S(=O)(=O)O)cc3ccc(Nc4ccc(C(=O)O)cc4)cc3c2O)c(OC)cc1N=Nc1ccc(C(=O)O)cc1 [Compound 14]	11.1	8.1	-5.0	.O slashed.	10.6%	
COc1cc(N=Nc2cccc(C(=O)O)c2)c(NC(C)=O)cc1N=Nc1c(S(=O)(=O)O)cc2ccc(NCCC(=O)O)cc2c1O [Compound 13]	2.2	1.3	1.1	.O slashed.		Bronzing
COc1cc(N=Nc2ccc3c(S(=O)(=O)O)cc(S(=O)(=O)O)cc3c2)c(C)cc1N=Nc1c(S(=O)(=O)O)cc2ccc(NCCS(=O)(=O)O)cc2c1O [Compound 6]	15.5	5.1	0.7	⊕	5%	
COc1cc(N=Nc2cccc(C(=O)O)c2)c(NC(C)=O)cc1N=Nc1c(S(=O)(=O)O)cc2ccc(N)cc2c1O [Compound 11]	20.6	7.5	-1.1	.O slashed.		Bronzing
COc1cc(N=Nc2cccc(S(=O)(=O)O)c2)c(C)cc1N=Nc1c(S(=O)(=O)O)cc2ccc(NCCS(=O)(=O)O)cc2c1O [Compound 1]	10.0	13.6	-0.8	⊕	6%	
